Laboratory results reported in patent US9241968B2, “Nonapeptide with anti-tumour activity” (Lytix Biopharma AS, priority 2008, dated 2016).
At least one peptide structure holds a part that was inferred or is arguable (an end, a ring closure or a residue). Non-standard residues stand in square brackets, D forms with d. Residues, ends and D or L forms follow the SMILES beside them. Dip = N[C@H](C(=O)O)C(c1ccccc1)c1ccccc1

Legend:
[1] = system: panel of 37 human cancer cell lines; test: In vitro cytotoxic activity, MTS assay, panel summary; assay type: cell-based; conditions: range stated in conclusions
Experimental: 2. Materials and Methods 2.1. Test Substances 2.1.1. Test Substances • Test substances, LTX-302, LTX-313, LTX-315, LTX-320 and LTX-329 (see Table 1) provided in powder form. 2.1.2. Positive Control • Triton X-100 was used as positive control, supplied by Oncodesign (Dijon, France) from Sigma (Saint Quentin Fallavier, France). 2.1.3. Drug Vehicle and Storage Conditions • Compounds were stored at 4° C. Powder was first dissolved in serum free culture medium (RPMI 1640, Lonza, Verviers, Belgium) and further diluted using serum-free culture medium to reach appropriate dilutions. Stock solution was not stored and was prepared fresh the day of experiment. • 1% (final concentration) Triton X-100 was obtained by dilution using culture medium. 2.2. Tumor Cell Lines and Culture Conditions 2.2.1. Tumor Cell Lines
Tumor cells were grown as adherent monolayers or as suspensions at 37° C. in a humidified atmosphere (5% CO2, 95% air). […] Cells were counted in a hemocytometer and their viability was assessed by 0.25% trypan blue exclusion. […]
Three (3) independent experiments were performed, each concentration being tested in quadruplicate. […] At the end of treatments, the cytotoxic activity was evaluated by a MTS assay (see §3.3). […]
The dose-response curves were plotted using XLFit 3 (IDBS, United Kingdom). The IC50 determination values were calculated using the XLFit 3 software from semi-log curves. […]

[2] = system: panel of 10 lymphoma cell lines; test: In vitro cytotoxic activity on lymphoma cells, MTS assay, panel summary; assay type: cell-based, human; conditions: range stated in conclusions
From the text: • To determine the concentrations of five novel compounds to obtain a 50% inhibition of proliferation (IC50) against a panel of 10 lymphoma cell lines. 2. Materials and Methods 2.1. Test Substances 2.1.1. Test Substances • Test substances, LTX-302, LTX-313, LTX-315, LTX-320 and LTX-329 (see Table 1) provided in powder form. 2.1.2. Positive Control • Triton X-100 was used as positive control and supplied by Oncodesign (Dijon, France) from Sigma (Saint Quentin Fallavier, France). 2.1.3. Drug vehicle and storage condition • Compounds were stored at 4° C. Powder was first dissolved in serum free culture medium (RPMI 1640, Lonza, Verviers, Belgium) and further diluted using serum-free culture medium to reach appropriate dilutions. Stock solution was not stored and was prepared fresh the day of experiment. • 1% (final concentration) Triton X-100 was obtained by dilution using culture medium. 2.2. Tumor Cell Lines and Culture Conditions 2.2.1. […]
Tumor cells were grown as suspensions at 37° C. in a humidified atmosphere (5% CO2, 95% air). […] For experimental use, cells were counted in a hemocytometer and their viability was assessed by 0.25% trypan blue exclusion. […]
Three independent experiments were performed, each concentration being issued from quadruplicate. […] At the end of treatments, the cytotoxic activity was evaluated by a MTS assay (see §3.3 below). […]
4.1. IC50 Data was Determined as in Example 1

[3] = system: murine CT26WT colon carcinoma; test: Intratumoral treatment of murine CT26WT colon carcinoma tumours in mice; assay type: in vivo
[4] = system: CT26WT colon carcinoma cells; test: Re-challenge with CT26WT cells in mice with complete tumour regression; assay type: in vivo, Balb-c mice
[5] = system: murine A20 B-cell lymphoma; test: Adoptive spleen cell transfer pilot study, A20 lymphoma model; assay type: in vivo, Balb/c mice; conditions: donors: 1 mg intratumoral once daily for 3 days, complete regression; 20×10^6 splenocytes i.v.

`NCCCC[C@H](NC(=O)[C@@H](NC(=O)[C@H](Cc1c[nH]c2ccccc12)NC(=O)[C@H](CCCCN)NC(=O)[C@H](CCCCN)NC(=O)[C@H](Cc1c[nH]c2ccccc12)NC(=O)[C@H](Cc1c[nH]c2ccccc12)NC(=O)[C@H](CCCCN)NC(=O)[C@@H](N)CCCCN)C(c1ccccc1)c1ccccc1)C(N)=O` [LTX-315, K-K-W-W-K-K-W-Dip-K-NH2] (H-KKWWKKW[Dip]K-NH2) was tested, and the “IC50 values against 37 human cancer cell lines (cytolytic activity), in words” value [1] was “micromolar to ten micromolar range”, the “IC50 values against the 10 human lymphoma cell lines (cytolytic activity), in words” value [2] was “micromolar range” and the “animals showing complete tumour response (text; tumour completely necrotic, wound crust)” value (shortened to “animals showing complete tumour response”) ([3]; Group 2: 1 mg on days 1, 2) was “two out of eight”. For the same compound, the “Free of Tumour at end of Follow-Up” value ([3]; Group 2: 1 mg on days 1, 2, 8 animals) was 25% (2/8), the “animals showing complete tumour response” value ([3]; Group 3: 1 mg on days 1, 3) was “five out of eight” and the “animals showing complete tumour response” value ([3]; Group 4: 1 mg on days 1, 2, 3) was “five out of eight”. For the same compound, the “tumour growth after re-inoculation compared with control animals” value ([4]; 9 mice previously treated with LTX-315 0.5 or 1 mg, re-inoculated 6 weeks after treatment, P<0.01) was “inhibition”, the “mice in which inhibition was observed after re-inoculation” value ([4]; of 9 mice previously treated with 0.5 or 1 mg) was 7 and the “A20 tumour growth in irradiated recipients of splenocytes from LTX-315-cured donors versus naive donors” value [5] was “Inhibition of tumour growth”.
